Source: the supplement of paper PMC10849652
Some of the results follow.

Protein sequences, listed by entry. Tags and fused reporters are not part of them. Lines headed by an entry give the natural chain unless they say otherwise; changes in a name come on top.
UniProt O75531: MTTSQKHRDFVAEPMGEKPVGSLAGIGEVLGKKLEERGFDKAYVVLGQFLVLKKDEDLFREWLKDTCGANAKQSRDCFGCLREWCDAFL
UniProt Q9NP55: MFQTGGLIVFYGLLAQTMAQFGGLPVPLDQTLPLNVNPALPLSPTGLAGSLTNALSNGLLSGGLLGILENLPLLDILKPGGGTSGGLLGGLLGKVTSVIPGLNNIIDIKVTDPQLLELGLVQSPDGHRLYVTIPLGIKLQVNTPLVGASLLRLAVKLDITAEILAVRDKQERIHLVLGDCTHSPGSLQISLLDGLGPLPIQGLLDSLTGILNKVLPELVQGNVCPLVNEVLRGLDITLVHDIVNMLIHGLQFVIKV
UniProt Q9H3K6: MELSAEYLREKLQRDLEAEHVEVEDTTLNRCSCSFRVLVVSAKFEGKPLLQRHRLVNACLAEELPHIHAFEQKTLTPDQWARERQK
UniProt Q8TDN6: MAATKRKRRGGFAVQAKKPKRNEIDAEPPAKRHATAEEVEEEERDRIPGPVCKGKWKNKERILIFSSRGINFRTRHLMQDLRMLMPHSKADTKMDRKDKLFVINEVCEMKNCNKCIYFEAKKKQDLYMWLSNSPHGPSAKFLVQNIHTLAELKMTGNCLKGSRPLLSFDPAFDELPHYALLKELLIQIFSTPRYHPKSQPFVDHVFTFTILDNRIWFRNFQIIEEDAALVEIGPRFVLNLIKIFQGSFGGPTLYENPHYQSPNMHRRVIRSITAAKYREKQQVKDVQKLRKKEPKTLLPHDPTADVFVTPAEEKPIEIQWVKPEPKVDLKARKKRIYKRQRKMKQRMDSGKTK
UniProt O95429: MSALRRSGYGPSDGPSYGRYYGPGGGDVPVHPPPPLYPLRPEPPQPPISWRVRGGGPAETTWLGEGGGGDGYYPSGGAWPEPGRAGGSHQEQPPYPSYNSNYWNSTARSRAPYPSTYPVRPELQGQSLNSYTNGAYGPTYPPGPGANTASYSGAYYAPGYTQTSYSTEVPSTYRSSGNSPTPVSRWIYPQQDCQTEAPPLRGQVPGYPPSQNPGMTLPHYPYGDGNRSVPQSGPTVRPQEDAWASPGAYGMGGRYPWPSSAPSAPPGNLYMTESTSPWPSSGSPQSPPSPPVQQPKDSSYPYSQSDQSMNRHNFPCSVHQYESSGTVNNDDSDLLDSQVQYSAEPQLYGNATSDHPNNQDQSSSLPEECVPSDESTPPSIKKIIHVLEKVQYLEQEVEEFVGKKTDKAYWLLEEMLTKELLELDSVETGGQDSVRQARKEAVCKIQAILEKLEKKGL
UniProt O14965: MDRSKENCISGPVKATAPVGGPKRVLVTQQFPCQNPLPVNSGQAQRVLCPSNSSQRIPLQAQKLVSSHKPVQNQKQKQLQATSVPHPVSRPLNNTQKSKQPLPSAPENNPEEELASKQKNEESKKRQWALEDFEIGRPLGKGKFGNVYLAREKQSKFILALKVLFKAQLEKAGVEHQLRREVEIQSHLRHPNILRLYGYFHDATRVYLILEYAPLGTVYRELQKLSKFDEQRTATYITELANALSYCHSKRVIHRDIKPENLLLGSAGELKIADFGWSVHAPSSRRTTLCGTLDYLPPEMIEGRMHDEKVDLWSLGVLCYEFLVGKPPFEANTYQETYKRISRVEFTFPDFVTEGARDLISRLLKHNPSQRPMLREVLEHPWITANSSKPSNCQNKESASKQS
UniProt H3BUF6: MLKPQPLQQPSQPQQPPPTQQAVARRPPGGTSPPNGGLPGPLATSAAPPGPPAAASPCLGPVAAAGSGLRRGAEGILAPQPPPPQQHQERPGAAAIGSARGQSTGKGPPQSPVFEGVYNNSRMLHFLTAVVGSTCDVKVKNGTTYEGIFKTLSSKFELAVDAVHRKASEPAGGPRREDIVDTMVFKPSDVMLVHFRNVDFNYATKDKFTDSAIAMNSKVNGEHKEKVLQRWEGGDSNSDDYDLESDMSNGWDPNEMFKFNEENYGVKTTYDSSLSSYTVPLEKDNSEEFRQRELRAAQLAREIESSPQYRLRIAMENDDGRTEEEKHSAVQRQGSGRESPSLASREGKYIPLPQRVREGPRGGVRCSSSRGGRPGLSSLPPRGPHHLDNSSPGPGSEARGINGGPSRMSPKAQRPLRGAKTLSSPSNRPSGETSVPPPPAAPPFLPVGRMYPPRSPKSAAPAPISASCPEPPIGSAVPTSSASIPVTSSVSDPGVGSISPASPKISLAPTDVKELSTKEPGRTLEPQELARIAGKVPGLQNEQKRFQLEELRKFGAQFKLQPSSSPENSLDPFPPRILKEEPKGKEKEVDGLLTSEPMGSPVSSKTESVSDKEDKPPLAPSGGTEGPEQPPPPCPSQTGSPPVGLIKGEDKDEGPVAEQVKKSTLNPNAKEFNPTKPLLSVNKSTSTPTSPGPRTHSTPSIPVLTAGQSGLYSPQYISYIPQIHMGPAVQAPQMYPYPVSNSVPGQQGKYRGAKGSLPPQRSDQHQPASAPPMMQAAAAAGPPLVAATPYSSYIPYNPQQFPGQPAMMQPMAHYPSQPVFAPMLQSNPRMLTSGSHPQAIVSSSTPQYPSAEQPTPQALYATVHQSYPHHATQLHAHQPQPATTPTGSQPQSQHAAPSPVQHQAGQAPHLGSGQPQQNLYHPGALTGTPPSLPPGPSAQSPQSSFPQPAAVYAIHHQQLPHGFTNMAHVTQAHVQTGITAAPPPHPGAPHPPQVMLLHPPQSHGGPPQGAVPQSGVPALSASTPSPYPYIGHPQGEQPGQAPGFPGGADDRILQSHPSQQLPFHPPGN
UniProt Q6PGQ7, whole entry, looked up: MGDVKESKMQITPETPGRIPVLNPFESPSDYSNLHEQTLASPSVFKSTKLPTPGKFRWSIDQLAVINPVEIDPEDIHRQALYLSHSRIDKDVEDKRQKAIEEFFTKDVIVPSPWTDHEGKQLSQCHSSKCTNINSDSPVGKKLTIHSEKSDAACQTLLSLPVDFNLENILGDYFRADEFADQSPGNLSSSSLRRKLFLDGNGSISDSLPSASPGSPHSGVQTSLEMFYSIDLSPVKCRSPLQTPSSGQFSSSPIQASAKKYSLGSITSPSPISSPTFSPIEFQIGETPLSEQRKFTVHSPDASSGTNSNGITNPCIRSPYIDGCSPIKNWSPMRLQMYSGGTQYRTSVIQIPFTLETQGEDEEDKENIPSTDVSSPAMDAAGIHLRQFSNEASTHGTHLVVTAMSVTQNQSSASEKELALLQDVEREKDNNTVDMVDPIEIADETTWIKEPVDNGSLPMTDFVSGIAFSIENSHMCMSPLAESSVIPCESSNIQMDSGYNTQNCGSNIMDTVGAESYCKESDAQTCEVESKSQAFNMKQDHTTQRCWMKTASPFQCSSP
UniProt Q14CW9: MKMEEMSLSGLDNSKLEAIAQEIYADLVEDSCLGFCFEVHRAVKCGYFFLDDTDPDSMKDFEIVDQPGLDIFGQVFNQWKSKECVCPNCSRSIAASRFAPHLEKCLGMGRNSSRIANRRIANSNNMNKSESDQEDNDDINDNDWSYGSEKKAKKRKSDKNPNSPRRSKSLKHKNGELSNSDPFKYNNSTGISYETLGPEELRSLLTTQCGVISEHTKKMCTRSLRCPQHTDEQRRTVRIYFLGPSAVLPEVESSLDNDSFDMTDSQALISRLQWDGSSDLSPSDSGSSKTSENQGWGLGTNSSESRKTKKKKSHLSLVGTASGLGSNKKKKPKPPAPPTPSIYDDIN
UniProt O43505: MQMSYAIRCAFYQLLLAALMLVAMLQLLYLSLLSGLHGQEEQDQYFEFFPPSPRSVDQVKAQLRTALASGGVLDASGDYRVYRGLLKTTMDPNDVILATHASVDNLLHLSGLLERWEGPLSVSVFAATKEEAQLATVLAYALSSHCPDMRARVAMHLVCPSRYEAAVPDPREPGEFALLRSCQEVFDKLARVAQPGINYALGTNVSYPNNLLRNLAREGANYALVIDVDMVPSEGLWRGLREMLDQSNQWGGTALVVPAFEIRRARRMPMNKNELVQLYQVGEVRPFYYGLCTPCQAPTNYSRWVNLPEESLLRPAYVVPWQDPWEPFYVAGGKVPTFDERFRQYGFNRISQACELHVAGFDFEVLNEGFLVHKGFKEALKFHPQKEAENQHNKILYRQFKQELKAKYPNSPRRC
UniProt Q14137: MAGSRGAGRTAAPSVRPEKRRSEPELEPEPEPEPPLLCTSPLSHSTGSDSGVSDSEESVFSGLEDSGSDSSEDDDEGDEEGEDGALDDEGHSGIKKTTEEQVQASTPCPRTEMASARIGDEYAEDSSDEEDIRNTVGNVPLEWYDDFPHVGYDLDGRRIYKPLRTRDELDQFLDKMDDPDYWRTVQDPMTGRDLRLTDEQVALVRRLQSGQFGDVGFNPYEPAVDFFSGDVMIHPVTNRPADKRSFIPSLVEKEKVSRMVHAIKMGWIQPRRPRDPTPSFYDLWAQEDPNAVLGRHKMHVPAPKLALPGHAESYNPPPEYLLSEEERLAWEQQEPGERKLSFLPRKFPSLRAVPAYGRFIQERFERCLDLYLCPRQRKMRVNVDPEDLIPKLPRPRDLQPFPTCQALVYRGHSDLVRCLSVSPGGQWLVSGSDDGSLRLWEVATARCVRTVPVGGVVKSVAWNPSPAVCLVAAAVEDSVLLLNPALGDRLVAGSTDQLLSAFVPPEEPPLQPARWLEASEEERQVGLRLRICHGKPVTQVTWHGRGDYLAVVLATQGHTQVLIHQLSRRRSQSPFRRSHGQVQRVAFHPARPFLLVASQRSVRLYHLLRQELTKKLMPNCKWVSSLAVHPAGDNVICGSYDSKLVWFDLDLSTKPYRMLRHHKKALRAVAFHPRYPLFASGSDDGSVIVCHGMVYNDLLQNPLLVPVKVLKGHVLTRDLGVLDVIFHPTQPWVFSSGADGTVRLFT
UniProt P55957: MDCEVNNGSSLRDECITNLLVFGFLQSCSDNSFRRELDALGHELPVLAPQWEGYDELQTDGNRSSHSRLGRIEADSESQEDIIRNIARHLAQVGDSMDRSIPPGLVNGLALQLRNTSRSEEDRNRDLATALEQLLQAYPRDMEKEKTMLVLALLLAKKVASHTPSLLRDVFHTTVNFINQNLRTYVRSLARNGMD
UniProt Q6QNY1: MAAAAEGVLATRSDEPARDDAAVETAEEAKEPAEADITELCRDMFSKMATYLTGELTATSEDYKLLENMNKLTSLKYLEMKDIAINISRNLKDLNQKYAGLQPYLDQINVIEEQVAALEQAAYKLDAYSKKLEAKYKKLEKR
UniProt Q9NYF8, whole entry, looked up: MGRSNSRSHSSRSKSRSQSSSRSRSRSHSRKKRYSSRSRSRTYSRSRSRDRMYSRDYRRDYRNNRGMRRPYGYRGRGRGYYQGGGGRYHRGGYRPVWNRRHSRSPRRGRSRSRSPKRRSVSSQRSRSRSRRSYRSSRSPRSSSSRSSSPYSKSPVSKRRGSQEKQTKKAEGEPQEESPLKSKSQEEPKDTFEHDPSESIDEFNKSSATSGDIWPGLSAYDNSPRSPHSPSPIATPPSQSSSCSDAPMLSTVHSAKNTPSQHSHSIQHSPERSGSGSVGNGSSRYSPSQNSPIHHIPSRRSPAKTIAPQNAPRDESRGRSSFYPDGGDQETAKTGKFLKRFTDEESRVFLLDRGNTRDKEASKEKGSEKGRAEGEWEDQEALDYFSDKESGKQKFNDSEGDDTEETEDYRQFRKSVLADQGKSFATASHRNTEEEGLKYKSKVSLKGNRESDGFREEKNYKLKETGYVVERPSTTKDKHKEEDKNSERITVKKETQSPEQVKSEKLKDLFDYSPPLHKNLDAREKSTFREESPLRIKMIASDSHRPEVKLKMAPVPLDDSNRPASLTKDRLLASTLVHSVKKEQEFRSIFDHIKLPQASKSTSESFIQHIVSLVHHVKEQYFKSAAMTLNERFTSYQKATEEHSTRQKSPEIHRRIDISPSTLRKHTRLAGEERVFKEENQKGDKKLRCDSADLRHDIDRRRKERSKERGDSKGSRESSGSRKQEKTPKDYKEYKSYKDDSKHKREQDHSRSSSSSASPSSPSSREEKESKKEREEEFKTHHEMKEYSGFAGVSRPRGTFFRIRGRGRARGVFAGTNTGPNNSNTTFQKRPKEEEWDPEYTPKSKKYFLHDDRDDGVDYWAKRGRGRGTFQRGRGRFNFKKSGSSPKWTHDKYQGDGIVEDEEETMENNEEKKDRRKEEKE
UniProt P51572: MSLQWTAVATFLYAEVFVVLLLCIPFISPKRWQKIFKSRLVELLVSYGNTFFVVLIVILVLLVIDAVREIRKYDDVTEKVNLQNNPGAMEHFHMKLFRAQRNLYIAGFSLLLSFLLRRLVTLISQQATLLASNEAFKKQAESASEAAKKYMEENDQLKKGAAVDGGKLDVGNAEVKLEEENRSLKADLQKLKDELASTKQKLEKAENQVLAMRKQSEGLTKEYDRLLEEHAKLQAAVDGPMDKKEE
UniProt Q86WA6: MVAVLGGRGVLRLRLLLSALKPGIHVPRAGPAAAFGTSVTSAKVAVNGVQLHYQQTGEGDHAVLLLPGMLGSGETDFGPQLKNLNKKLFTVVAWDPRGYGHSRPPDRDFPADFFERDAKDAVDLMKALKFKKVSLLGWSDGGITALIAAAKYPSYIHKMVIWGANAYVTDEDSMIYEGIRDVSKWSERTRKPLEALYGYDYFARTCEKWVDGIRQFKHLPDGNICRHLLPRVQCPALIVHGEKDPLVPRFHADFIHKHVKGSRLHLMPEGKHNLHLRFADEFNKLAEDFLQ

Legend:
Assay in all cases: log2 fold change, soluble protein after heating vs DMSO (PISA); higher = thermal stabilisation; K562 cells, 10 uM, 30 min; active = over 0.2 and 3.5 SD of the protein, either way, in both replicates (recomputed)
[1] = compound: C1=CC=C(C=C1)[C@H](COC2=CC3=C(C=C2)NC(=O)N3)NC(=O)C4=CC=CN(C4=O)CC5=CC(=C(C=C5)F)F
How it was run: (§1)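 Soluble protein was defined as the supernatant after 21,000xg for 90 min. It came from K562 cells at 2×10^6 cells/mL given 10 μM compound for 30 min, heated in aliquots for 3 min across 48°C-58°C, pooled, and extracted in PBS with 0.5% NP-40 at 4°C, and was quantified by TMTpro 16plex LC-MS/MS with equalised channel sums. Thermal stability against control samples, from duplicates, is reported as log2 fold change.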

[2] = compound: CC1=C(SC2=C1C(=N[C@H](C3=NN=C(N32)C)CC(=O)N)C4=CC=C(C=C4)Cl)C
How it was run: as §1

[3] = compound: CC1=C2C(=CC=C1)N=C(N(C2=O)C3=CC=CC=C3C)CN4C=NC5=C(N=CN=C54)N
How it was run: as §1

[4] = compound: Cc1sc2c(c1C)C(c1ccc(Cl)cc1)=N[C@@H](CC(=O)OC(C)(C)C)c1nnc(C)n1-2
How it was run: as §1

[5] = compound: c1ccc([C@@H]2C[C@H]2NC2CCNCC2)cc1
How it was run: as §1

Measured: log2 fold change

BLMH (UniProt Q13867)
inactive: [1] -0.001 | [2] -0.047 | [3] -0.099 | [4] 0.024 | [5] 0.059

BMP1 (UniProt P13497)
inactive: [1] -0.051

BRI3BP (UniProt Q8WY22)
inactive: [1] 0.165 | [2] 0.131 | [3] 0.075 | [4] 0 | [5] 0.134

BCAT2 (UniProt O15382)
inactive: [1] 0.015 | [2] 0.048 | [3] 0 | [4] -0.036 | [5] 0.042

ATXN2 (UniProt Q99700)
inactive: [1] 0.004 | [2] 0.005 | [3] -0.003 | [4] 0.038 | [5] 0.014

BANF1 (UniProt O75531)
inactive: [1] -0.064 | [2] 0.11 | [3] 0.097 | [4] -0.132 | [5] -0.08

BCAS2 (UniProt O75934)
inactive: [1] 0.021 | [2] 0.027 | [3] 0.087 | [4] -0.132 | [5] -0.022

BPIFA1 (UniProt Q9NP55)
inactive: [1] 0.022

BROX (UniProt Q5VW32)
inactive: [1] -0.029 | [2] 0.058 | [3] 0.109 | [4] -0.01 | [5] -0.006

BRI3 (UniProt O95415)
inactive: [1] 0.018

BPGM (UniProt P07738)
inactive: [1] -0.025 | [2] 0.065 | [3] 0.015 | [4] -0.018 | [5] 0.044

BLOC1S3 (UniProt Q6QNY0)
inactive: [1] -0.048 | [2] 0.084 | [3] 0.088 | [4] -0.113 | [5] -0.06

B4GALT7 (UniProt Q9UBV7)
inactive: [1] -0.011 | [2] 0.037 | [3] 0.036 | [4] -0.044 | [5] 0.05

B4GALT4 (UniProt O60513)
inactive: [1] 0.084

BOLA2 (UniProt Q9H3K6)
inactive: [1] -0.014 | [2] 0.115 | [3] 0.081 | [4] -0.042 | [5] -0.031

BLM (UniProt P54132)
inactive: [1] -0.005 | [2] 0.117 | [3] 0.101 | [4] -0.044 | [5] 0.005

BLVRB (UniProt P30043)
inactive: [1] -0.029 | [2] 0.027 | [3] -0.01 | [4] -0.006 | [5] 0.013

BOD1L1 (UniProt Q8NFC6)
inactive: [1] 0.023 | [2] -0.036 | [3] -0.031 | [4] 0.032 | [5] 0.027

ATRIP (UniProt Q8WXE1)
inactive: [1] -0.025 | [2] 0.111 | [3] 0.066 | [4] 0.061 | [5] 0.061

BNIP2 (UniProt H7C096)
inactive: [1] 0.04

BRIX1 (UniProt Q8TDN6)
inactive: [1] 0.093 | [2] -0.349 | [3] -0.242 | [4] 0.244 | [5] -0.007

Retrieved one by one from above (five):
BOD1L1 (UniProt Q8NFC6)
inactive: [1] 0.023 | [2] -0.036 | [3] -0.031 | [4] 0.032 | [5] 0.027

BPGM (UniProt P07738)
inactive: [1] -0.025 | [2] 0.065 | [3] 0.015 | [4] -0.018 | [5] 0.044

BCAS2 (UniProt O75934)
inactive: [1] 0.021 | [2] 0.027 | [3] 0.087 | [4] -0.132 | [5] -0.022

BLMH (UniProt Q13867)
inactive: [1] -0.001 | [2] -0.047 | [3] -0.099 | [4] 0.024 | [5] 0.059

BMP1 (UniProt P13497)
inactive: [1] -0.051

The list goes on:

BRAT1 (UniProt Q6PJG6)
inactive: [1] -0.017 | [2] 0.03 | [3] 0.059 | [4] -0.053 | [5] -0.075

BRD8 (UniProt Q9H0E9)
inactive: [1] 0.027 | [2] -0.009 | [3] 0.023 | [4] 0.009 | [5] 0.021

BIRC2 (UniProt Q13490)
inactive: [1] -0.036 | [2] 0.035 | [3] 0.2 | [4] 0.042 | [5] -0.054

BAG4 (UniProt O95429)
inactive: [1] 0.014 | [2] 0.123 | [3] 0.081 | [4] 0.021 | [5] 0.024

BCS1L, A0A2R8Y7T3
inactive: [1] -0.159

AURKA (UniProt O14965)
inactive: [1] 0 | [2] 0.148 | [3] 0.018 | [4] 0.009 | [5] -0.038

BABAM1 (UniProt Q9NWV8)
inactive: [1] 0.043 | [2] -0.006 | [3] -0.063 | [4] -0.001 | [5] 0.032

B2M (UniProt P61769)
inactive: [1] 0.01 | [2] 0.25 | [3] 0.156 | [4] -0.045 | [5] -0.214

ATXN2L (UniProt H3BUF6)
inactive: [1] 0.017

BORCS7 (UniProt Q96B45)
inactive: [1] 0 | [2] 0.195 | [3] 0.129 | [4] -0.083 | [5] -0.196

BCKDK (UniProt O14874)
inactive: [1] 0.061 | [2] -0.099 | [3] -0.028 | [4] 0.034 | [5] -0.083

BORA (UniProt Q6PGQ7)
inactive: [1] 0.159

BCCIP isoform 2 (UniProt Q9P287)
inactive: [1] -0.031 | [2] 0.002 | [3] -0.001 | [4] -0.035 | [5] 0.014

BAX isoform 2 (UniProt Q07812)
inactive: [1] -0.034 | [2] 0.011 | [3] 0.018 | [4] -0.032 | [5] -0.008

BICD2 isoform 2 (UniProt Q8TD16)
inactive: [1] -0.017 | [2] 0 | [3] 0.02 | [4] -0.01 | [5] 0.005

BCKDHA (UniProt P12694)
inactive: [1] -0.056 | [2] -0.001 | [3] 0.026 | [4] -0.039 | [5] -0.016

ATXN7L3 isoform 2 (UniProt Q14CW9)
inactive: [1] -0.156

BNIP2 (UniProt J3KN59)
inactive: [1] 0.076 | [2] 0.031 | [3] 0.016 | [4] -0.003 | [5] -0.04

ATXN10 (UniProt Q9UBB4)
inactive: [1] -0.037 | [2] 0.037 | [3] 0.009 | [4] -0.011 | [5] -0.025

B4GAT1 (UniProt O43505)
inactive: [1] 0.195 | [2] 0.089 | [3] 0.013 | [4] 0.094 | [5] 0.014

BET1 (UniProt O15155)
inactive: [1] 0.036 | [2] 0.075 | [3] 0.06 | [4] -0.052 | [5] 0.004

BOP1 (UniProt Q14137)
inactive: [1] 0.096 | [2] -0.099 | [3] 0.01 | [4] -0.036 | [5] -0.01

BAP1 (UniProt Q92560)
inactive: [1] -0.226 | [2] -0.123 | [3] -0.156 | [4] 0.066 | [5] -0.037

ATXN3 isoform 1 (UniProt P54252)
inactive: [1] -0.012 | [2] 0.001 | [3] 0.118 | [4] -0.068 | [5] 0

BSDC1 (UniProt Q9NW68)
inactive: [1] 0 | [2] 0.049 | [3] 0.001 | [4] -0.015 | [5] 0.023

BID isoform 2 (UniProt P55957)
inactive: [1] -0.036 | [2] 0.059 | [3] 0.081 | [4] -0.076 | [5] -0.053

BLOC1S2 (UniProt Q6QNY1)
inactive: [1] -0.03 | [2] 0.03 | [3] 0.11 | [4] -0.046 | [5] -0.024

BCCIP (UniProt Q9P287)
inactive: [1] -0.044 | [2] -0.018 | [3] 0 | [4] -0.037 | [5] -0.062

BCLAF1 (UniProt Q9NYF8)
inactive: [1] 0.031 | [2] 0.027 | [3] -0.118 | [4] -0.013 | [5] 0.047

BCAS1 (UniProt O75363)
inactive: [1] -0.022 | [2] 0.047 | [3] -0.117 | [4] 0.482 | [5] 0.16

BLOC1S1 (UniProt P78537)
inactive: [1] -0.028 | [2] 0.075 | [3] 0.026 | [4] -0.083 | [5] -0.032

BCAR1 isoform 6 (UniProt P56945)
inactive: [1] -0.046 | [2] 0.054 | [3] 0.202 | [4] 0.138 | [5] 0.022

B3GAT3 (UniProt O94766)
inactive: [1] 0 | [2] 0.006 | [3] -0.157 | [4] 0.069 | [5] -0.017

AVL9 (UniProt Q8NBF6)
inactive: [1] -0.033 | [2] 0.064 | [3] 0.051 | [4] 0.02 | [5] -0.035

BSCL2 isoform 4 (UniProt Q96G97)
inactive: [1] -0.07 | [2] 0.106 | [3] -0.084 | [4] 0.027 | [5] -0.127

BCAT1 (UniProt P54687)
inactive: [1] 0.009 | [2] 0.026 | [3] 0.014 | [4] -0.009 | [5] 0.026

BCAP31 isoform 2 (UniProt P51572)
inactive: [1] -0.003 | [2] -0.012 | [3] 0 | [4] -0.003 | [5] -0.001

BPHL (UniProt Q86WA6)
inactive: [1] -0.015 | [2] 0.052 | [3] 0.075 | [4] 0.136 | [5] -0.065
